{"sequences": {"note": "The chains behind the UniProt entries cited, without tags or fusion partners.", "UniProt Q0JBA9, entry or part of it": "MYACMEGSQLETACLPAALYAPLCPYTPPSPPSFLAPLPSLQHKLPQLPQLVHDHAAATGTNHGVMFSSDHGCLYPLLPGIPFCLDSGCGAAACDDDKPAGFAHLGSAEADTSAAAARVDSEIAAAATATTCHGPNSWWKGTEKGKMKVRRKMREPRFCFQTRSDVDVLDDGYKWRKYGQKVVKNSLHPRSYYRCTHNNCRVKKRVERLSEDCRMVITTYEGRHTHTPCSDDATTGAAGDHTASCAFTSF"}, "source": "paper PMC7819943", "about": "“Rice protein-binding microarrays: a tool to detect cis-acting elements near promoter regions in rice”", "note": "The other results are listed elsewhere or left out."}
{"target": "OsWRKY34 (Oryza sativa, UniProt Q0JBA9 1-250)", "assay": "protein-binding microarray (RPBM); PBS, 2% BSA, 51.3 ng/ul salmon testes DNA, 50 uM zinc acetate, 200 nM TF, 25 C, 1 h; high values mean tight binding", "conditions": "protein: recombinant; tags: N-terminal polyhistidine and DsRed monomer fusion (pET32a); label: CyDye5-dUTP incorporated in the synthesized complementary strand; 3' TTTTT single-stranded linker to array surface; dsDNA, one strand shown", "in_short": "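Per-feature fluorescence intensity (arbitrary units), read on an Axon 4000B scanner, is the binding signal. Transcription factors carrying an N-terminal polyhistidine tag and DsRed fusion were expressed in E. coli BL21-CodonPlus and purified on Ni–NTA. A custom Agilent array, made double-stranded by primer extension with Cy5-dUTP and blocked with 2% BSA, was incubated with 200 nM protein in PBS, 2% BSA, salmon testes DNA and 50 µM zinc acetate at 25 °C for 1 h and then washed.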"}
{"sequence": "TGACTAGCTATTTTTCCATTTCTTTTTGGCGGCTAACTGGCGGAGTCACCTAGTGCAG", "binding signal": "8260 fluorescence intensity (a.u.)"}
{"sequence": "CAATGTTTGTTGACTTGCCAATCCGACCGATTTGCCAGTTCGGAGTCACCTAGTGCAG", "binding signal": "8810 fluorescence intensity (a.u.)"}
{"sequence": "ACACCTGCCATTATACTATAGATCCGCTCCTGCTCTTCCACGGAGTCACCTAGTGCAG", "binding signal": "9120 fluorescence intensity (a.u.)"}
{"sequence": "TGCTTATTATTACACTTATTTGTTCAAAGCTACTGTTAGTCGGAGTCACCTAGTGCAG", "binding signal": "8440 fluorescence intensity (a.u.)"}
{"sequence": "CTTCCTTTTTTTTACACCAATTGTTTTTTTTCTAGTAGATCGGAGTCACCTAGTGCAG", "binding signal": "8430 fluorescence intensity (a.u.)"}
{"sequence": "CCGAAATCCCCAAAATTTTGGTCTTTTACTCGCACTCTTGCGGAGTCACCTAGTGCAG", "binding signal": "8250 fluorescence intensity (a.u.)"}
{"sequence": "ACTGTCTCTCACTTAGCTGTTGCTAGCTGTCCCCTTTCCCCGGAGTCACCTAGTGCAG", "binding signal": "8160 fluorescence intensity (a.u.)"}
{"sequence": "ACTTTTACATAGAATTTTTTTTTGAACACACCGTTTAGCACGGAGTCACCTAGTGCAG", "binding signal": "8510 fluorescence intensity (a.u.)"}
{"sequence": "CCCATCATCCGCCCATGTCCCTGATTGATTGAAATTCATTCGGAGTCACCTAGTGCAG", "binding signal": "8340 fluorescence intensity (a.u.)"}
{"sequence": "TGGGATGTATGGCTCGTGTCGGCTGCAGCAACGCCGACCTCGGAGTCACCTAGTGCAG", "binding signal": "8120 fluorescence intensity (a.u.)"}
{"sequence": "CTCTCATTTTTATTACACATTGATTGATATCTGCAGCAAGCGGAGTCACCTAGTGCAG", "binding signal": "10100 fluorescence intensity (a.u.)"}
{"sequence": "TTGTCGATGTTGAAGCACCTTAATAACTTCATCAATTTCACGGAGTCACCTAGTGCAG", "binding signal": "8030 fluorescence intensity (a.u.)"}
{"sequence": "ATTGAACTGAGAGTATACTACTCCTACTTTGCTTTTCTGCCGGAGTCACCTAGTGCAG", "binding signal": "8120 fluorescence intensity (a.u.)"}
{"sequence": "GGGGCAGACCTTCCTGTGGCGCCGCACGTCTCTCTCCCCGCGGAGTCACCTAGTGCAG", "binding signal": "8630 fluorescence intensity (a.u.)"}
{"sequence": "AAAACTGACTATCATCTGGCCATTCTCAGCTCCCCGAAACCGGAGTCACCTAGTGCAG", "binding signal": "8900 fluorescence intensity (a.u.)"}
{"sequence": "TATGGTGCTAAAAAAGAAAACCAGGTGGAGGGAGGGGAGGCGGAGTCACCTAGTGCAG", "binding signal": "9500 fluorescence intensity (a.u.)"}
{"sequence": "CATCCGGTATTAAAAGTTTAGGGTGGGCAATATCTGGTTTCGGAGTCACCTAGTGCAG", "binding signal": "13300 fluorescence intensity (a.u.)"}
{"sequence": "CTCTATGTGTGGCTTATATTTTTAATTTTTTTAAAAAATTCGGAGTCACCTAGTGCAG", "binding signal": "8690 fluorescence intensity (a.u.)"}
{"sequence": "GAGTATTCCATTTCCAAAATTGTGTGGTCTGGCCTTTCTCCGGAGTCACCTAGTGCAG", "binding signal": "9570 fluorescence intensity (a.u.)"}
{"sequence": "AGCATTCCTTCTAGTTCATTTTCTTGTCCTACTCGGAGGGCGGAGTCACCTAGTGCAG", "binding signal": "11500 fluorescence intensity (a.u.)"}
{"sequence": "TTTAGTTGTTGTTTAAGCTCAACCTCTGTTTGTGTTGATACGGAGTCACCTAGTGCAG", "binding signal": "9400 fluorescence intensity (a.u.)"}
{"sequence": "GTGATTTGTTCTATATATTGACTCTTAATTAATGAGTTGACGGAGTCACCTAGTGCAG", "binding signal": "8940 fluorescence intensity (a.u.)"}
{"sequence": "AGAATTTCTGTTGTTCTGCTCTAGTATTTTTACGCCAACTCGGAGTCACCTAGTGCAG", "binding signal": "10700 fluorescence intensity (a.u.)"}
{"sequence": "CATGTTTTGAGTATGCTGTTCCCTTGTTTCTGTTTTGATTCGGAGTCACCTAGTGCAG", "binding signal": "9010 fluorescence intensity (a.u.)"}
{"sequence": "GGCTCCTCATCTCACACTCCGTACACCCAGTCCATACACCCGGAGTCACCTAGTGCAG", "binding signal": "8860 fluorescence intensity (a.u.)"}
{"sequence": "CATTTTTGTCTTTTTTGTTAGTTTACCGGTAGTTTTCGTGCGGAGTCACCTAGTGCAG", "binding signal": "8650 fluorescence intensity (a.u.)"}
{"sequence": "ATATGATTTTGTACAACAACTTTCCCATATATCTTTTTTACGGAGTCACCTAGTGCAG", "binding signal": "10200 fluorescence intensity (a.u.)"}
{"sequence": "GTGAGGTCTGTTTTCTTCGGGCGTACGGTTTCCTTTTTTTCGGAGTCACCTAGTGCAG", "binding signal": "14100 fluorescence intensity (a.u.)"}
{"sequence": "CGGTATGGTTGATCCCTTGTATGTTTGTCCAGGCATCCGCCGGAGTCACCTAGTGCAG", "binding signal": "8760 fluorescence intensity (a.u.)"}
{"sequence": "CATTGTTCGTGCCCTTACTTTATCATCAATAAATAACACTCGGAGTCACCTAGTGCAG", "binding signal": "8690 fluorescence intensity (a.u.)"}
{"sequence": "CATTTTCCTGGTATATATTCCGATCCGTTCCCTGGTTTCTCGGAGTCACCTAGTGCAG", "binding signal": "11500 fluorescence intensity (a.u.)"}
{"sequence": "TCGCTCTCTCTCTCTCTCTCTCTGCCCGTACACTCGGCGCCGGAGTCACCTAGTGCAG", "binding signal": "8090 fluorescence intensity (a.u.)"}
{"sequence": "TCAGGCACAAAAGTTTCTTTCCCGGGTGGGGTCCACAAGTCGGAGTCACCTAGTGCAG", "binding signal": "8250 fluorescence intensity (a.u.)"}
{"sequence": "CCAGTTTCAGTTTAAGCTCTTAAACCCTCGCCGGGAGATTCGGAGTCACCTAGTGCAG", "binding signal": "8710 fluorescence intensity (a.u.)"}
{"sequence": "GGAATTTTGAGTTTTTACTTGCAACGTTTGACCACTTGTCCGGAGTCACCTAGTGCAG", "binding signal": "11600 fluorescence intensity (a.u.)"}
{"sequence": "CCGTGGTGGTACGCGCGCGCTGCGTACGTTTTTTTTTCTTCGGAGTCACCTAGTGCAG", "binding signal": "9450 fluorescence intensity (a.u.)"}
{"sequence": "CCCCGACTGCCCCGACACCGGCTGCCTCGTCGACCTCAACCGGAGTCACCTAGTGCAG", "binding signal": "9000 fluorescence intensity (a.u.)"}
{"sequence": "GGTTGCAAAATTCTCCTCGGAAACCGCATCTCACCGTCCGCGGAGTCACCTAGTGCAG", "binding signal": "9340 fluorescence intensity (a.u.)"}
{"sequence": "CTTTTTCATCGTATCCAAACTTTTCTACACACACAAACTTCGGAGTCACCTAGTGCAG", "binding signal": "9170 fluorescence intensity (a.u.)"}
{"sequence": "GCCGTCCATGAGCTCTGTTTTTTATCCTAACACCCCTCTGCGGAGTCACCTAGTGCAG", "binding signal": "8490 fluorescence intensity (a.u.)"}
{"sequence": "GTATCCATATATGTTCATCTCGTTTTTGTGTCATAACCGTCGGAGTCACCTAGTGCAG", "binding signal": "9750 fluorescence intensity (a.u.)"}
{"sequence": "AAACCGGACCAATCTACGTCACTCACCTACTACCACAAGACGGAGTCACCTAGTGCAG", "binding signal": "8750 fluorescence intensity (a.u.)"}
